Experimental data from patent US20240317748A1, “CARBONYL SUBSTITUTED DIAZASPIRO COMPOUNDS AND ITS USE” (BIONOVA PHARMACEUTICALS (SHANGHAI) LIMITED, priority 2021, published 2024).

By UniProt entry, the sequences of proteins in these tests, tags left out. Residues count along the entry.
UniProt O00255, 2-610 limits assumed: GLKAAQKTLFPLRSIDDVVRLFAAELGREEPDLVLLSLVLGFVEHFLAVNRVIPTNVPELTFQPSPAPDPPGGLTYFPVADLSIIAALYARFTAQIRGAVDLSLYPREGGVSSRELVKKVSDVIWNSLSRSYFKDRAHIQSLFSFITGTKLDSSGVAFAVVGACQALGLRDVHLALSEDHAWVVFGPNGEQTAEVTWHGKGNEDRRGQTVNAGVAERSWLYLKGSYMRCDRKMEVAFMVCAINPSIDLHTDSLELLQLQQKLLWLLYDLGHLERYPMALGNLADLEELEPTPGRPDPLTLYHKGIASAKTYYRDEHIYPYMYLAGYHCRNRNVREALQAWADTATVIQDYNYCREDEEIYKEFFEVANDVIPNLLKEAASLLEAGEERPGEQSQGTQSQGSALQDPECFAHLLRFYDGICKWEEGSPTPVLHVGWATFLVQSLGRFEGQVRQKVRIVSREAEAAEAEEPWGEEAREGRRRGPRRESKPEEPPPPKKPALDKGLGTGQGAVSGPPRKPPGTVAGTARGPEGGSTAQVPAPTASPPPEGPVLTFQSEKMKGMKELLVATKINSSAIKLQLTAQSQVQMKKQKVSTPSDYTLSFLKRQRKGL

Legend:
MV-4-11 cells = test: Cell proliferation assay (CellTiter-Glo), MV-4-11; settings: read-out: Cell antiproliferation assay MV-4-11 IC50; MV-4-11 (MLL-AF4), 4 days incubation
Procedure: The antiproliferative activity of test compounds was assessed in human leukemia cell lines. The cell line MV4-11, MOLM13 and OCI-AML3, which expresses the MLL fusion protein MLL-AF4, MLL-AF9 and carry the NPM1c gene mutation, respectively, were tested. HL-60 was used as a control cell line containing two MLL wildtype alleles in order to exclude compounds that display general cytotoxic effect. MV4-11 cells were cultured in IMDM supplemented with 10% FBS, MOLM13 and OCI-AML3 cells were cultured in RPMI1640 supplemented with 20% FBS, and HL-60 cells were cultured in IMDM supplemented with 20% FBS. Corresponding cells (MV4-11, MOLM13, OCI-AML3 or HL-60 cell line) were seeded in 100 uL medium per well in 96-well plate (white wall with clear bottom, tissue culture treated, Corning, Cat. No. CLS3903; Lot.No. 30419025). Plates were placed in the CO2 incubator overnight. Compounds solution (2 mM starting, 4-fold serial dilution) were prepared and added to the wells containing 100 μL of the culture medium with HPD300 according to the plate map and centrifuge at 1000 rpm for 1 minutes (200-fold dilution totally). MV4-11, MOLM13, OCI-AML3 and HL-60 cells were incubated with the compounds for 4, 12, 5 and 4 days, respectively, under 5% CO2 at 37° C., respectively. […] After incubation at room temperature for 10 mins, clear bottom with white back seal was pasted and luminescence with Envision was read.

Menin-MLL1 = Menin-MLL1 (Homo sapiens, UniProt O00255); test: Menin-MLL1 inhibition assay (fluorescence polarization, Menin protein + FAM-MLL peptide); settings: read-out: Biochemical assay Menin-MLL1 IC50; Menin (2-610) isoform 2, FAM-labelled MLL peptide, mP readout
Procedure: 1× assay bu9ffer (Tris 7.5 50 mM, NaCl 50 mM, DTT 1 mM, Tween-20 0.01%) was prepared and test compounds solution (10 mM in DMSO, Sigma, Cat. No. 34869) were transferred to assay plate (384-well plate, Perkin Elmer, Cat. No. 6007279) by Echo. The final fraction of DMSO is 1%. 20 nM of Menin protein (Menin (2-610) isform2, ChemPartner, Cat. No. 2020111101) in 1× assay buffer was added to prepare 2× enzyme solution. Then 10 nM of MLL-peptide (Ac-SRWRFPARPGTGRR-Ahx-Ahx-K(FAM)-NH2, GL Biochem (Shanghai)), Cat. No. 833831/202009220104) in 1× assay buffer was added to prepare 2× substrate solution. 10 μL of 2× enzyme solution was transferred to assay plate or 10 μL of 1× assay buffer for low control group. 10 μL of 2× substrate solution was added to each well to start reaction. mP data on Envision (Ex480/Em535(s), Em535(p)) was collected.
Compound potencies were determined by first calculating % inhibition at each compound concentration according to equation 1:
Inhibition %=(Max−Signal)/(Max−Min)*100 (Equation 1)
Y=Bottom+(Top-Bottom)/(1+(IC50/X)[…]), where Y is % inhibition and X is compound concentration (Equation 2)

| Structure (SMILES) | IC50 (MV-4-11 cells) [nM] | IC50 (Menin-MLL1) [nM] |
| --- | --- | --- |
| CCN(C(=O)c1cc(F)ccc1Oc1cncnc1N1CC2(CCN(C(=O)[C@H]3NCc4c3cnn4C)CC2)C1)C(C)C | 107 | 5.2 |
| N#Cc1ccc(-c2cc(F)ccc2Oc2nncnc2N2CC3(CCN(C(=O)[C@H]4NC[C@@H]5CCC[C@@H]54)CC3)C2)c(C2CC2)c1 | 2.3 | 4.4 |

The match of structure and compound is tentative.
